Laboratory results reported in US20080286349A1, “SYSTEMS, DEVICES, AND METHODS FOR PASSIVE TRANSDERMAL DELIVERY OF ACTIVE AGENTS TO A BIOLOGICAL INTERFACE” (priority 2007, published 2008).
Where a name gives a salt, the structure may show the parent alone.

Tests used:
[1] = Delivery of aqueous drug solutions through skin in Franz cell (amount over time, flux)
Text: An H-shaped Franz cell (FIG. 7) was used to evaluate the theory described herein. As shown, the Franz cell 28 includes a donor chamber 30a and a receiver chamber 30b. The donor chamber 30a contains an ionic active agent, which permeates through a membrane 32 to reach the receiver chamber 30b. A working electrode 34a was inserted in the donor chamber 30a, while a counter electrode 34b (i.e., reference electrode) was inserted in the receptor chamber 30b. It is possible to measure the electrical potential difference induced by the ionic diffusion/permeation and the concentration gradient thus established. […]

[2] = Membrane potential measurement across skin in H-shaped Franz cell; ion mobility relative to chloride; type: physicochemical, mouse; conditions: Lid-HCl 185 mM (5% Lidocaine); Cl− = 1
Text: The electric potential difference shown here is between the outside and the inside of the skin. The “+/−” notation is opposite to that shown in Equation 12. […] It is thought that the membrane potential may be generated due to the influence of pH changes in solution. At 0.12 M, an electric potential difference is present that tends to promote migration of cations in the direction from the outside of the skin toward the inside due to an electric field within the skin. At other concentrations, however, an oppositely signed electric potential gradient occurs, which would tend to hamper the movement of Procaterol cations into the skin. It is thought that the electric potential differences develop due to the influence of protons, Procaterol cations, and chloride ions. The mobility of the Procaterol cations with respect to the mobility of chloride ions can be obtained based on the results of the membrane electrical potential measurement. […] These values have been used to make calculations. […] It can be seen that the migration speed of Procaterol ions is slow compared to that of chloride ions.

[3] = Computed membrane potential and ion flux (Eq. 11 Goldman equation, Eq. 12); conditions: Lidocaine, relative to Cl−
Text: Further, it is necessary to linearly approximate the concentration gradient or the electric potential gradient to solve equation 9. […] The potential difference across the skin has been considered for a single component system. […] Thus, a film potential can be calculated provided that the ion mobility (omega) and concentration (c) within the skin are known. The ion transport speed can then be found from the calculated film potential.

CCN(CC)CC(=O)Nc1c(C)cccc1C [Lidocaine, Lidocaine HCl]
Flux ([1]; 0.059 M Lidocaine HCl): 3.8 μg h^−1 cm^−2 | Amount of Lidocaine delivered ([1]; 0.059 M, time 0 hr): 0 | Amount of Lidocaine delivered ([1]; 0.059 M, time 1 hr): 122.5 | Amount of Lidocaine delivered ([1]; 0.059 M, time 3 hr): 367.5 | Amount of Lidocaine delivered ([1]; 0.059 M, time 5 hr): 612.4 | Flux ([1]; 0.148 M Lidocaine HCl): 1.8 μg h^−1 cm^−2 | Amount of Lidocaine delivered ([1]; 0.148 M, time 0 hr): 0 | Amount of Lidocaine delivered ([1]; 0.148 M, time 1 hr): 57.4 | Amount of Lidocaine delivered ([1]; 0.148 M, time 3 hr): 172.2 | Amount of Lidocaine delivered ([1]; 0.148 M, time 5 hr): 287.0 | Flux ([1]; 0.296 M Lidocaine HCl): 0.7 μg h^−1 cm^−2 | Amount of Lidocaine delivered ([1]; 0.296 M, time 0 hr): 0 | Amount of Lidocaine delivered ([1]; 0.296 M, time 1 hr): 23.9 | Amount of Lidocaine delivered ([1]; 0.296 M, time 3 hr): 71.8 | Amount of Lidocaine delivered ([1]; 0.296 M, time 5 hr): 119.6 | Mobility of ion (Lidocaine cation with respect to chloride ions) [2]: 0.67 | Mobility ratio w ([3]; printed concentration 0.000059 mol cm^3): 0.45 | Mobility ratio w ([3]; printed concentration 0.000148 mol cm^3): 0.67 | Mobility ratio w ([3]; printed concentration 0.000296 mol cm^3): 2.15
